Strings that start with PEPTIDE1 are HELM notation: dots part the residues, brackets hold end groups and non-standard residues.
Assay: general procedure: solution-phase peptide synthesis; hydrophobic carrier for liquid phase synthesis (alkoxy-substituted benzyl groups Ka, Kb, Kc); HATU/HOAt/DIPEA
Settings: late stage modification step

Substance “PEPTIDE1{Y.K.W.S.Q.Y.L.[NbuGly].Y}$PEPTIDE1,PEPTIDE1,2:R3-8:R3$$$V2.0” has a step yield (from compound 25) of 52.6%.
Substance “PEPTIDE1{Y.[Lys_NeAc].W.S.Q.Y.L.[NbuGly].Y}$PEPTIDE1,PEPTIDE1,2:R3-8:R3$$$V2.0” has a step yield (from compound 27) of 59.8%.
In the case of “PEPTIDE1{Y.[Lys_NePr].W.S.Q.Y.L.[NbuGly].Y}$PEPTIDE1,PEPTIDE1,2:R3-8:R3$$$V2.0”, the step yield is reported as 20.7%.
Substance “PEPTIDE1{[ac].Y.K.W.S.Q.Y.L.[NbuGly].Y}$PEPTIDE1,PEPTIDE1,3:R3-9:R3$$$V2.0” has a step yield (from compound 19) of 23.4%.
Work on “PEPTIDE1{[ac].Y.[Lys_NeAc].W.S.Q.Y.L.[NbuGly].Y}$PEPTIDE1,PEPTIDE1,3:R3-9:R3$$$V2.0” yielded a step yield (from compound 22) of 37.4%.
In the case of “[C] is Trp-Ser-Gln-Tyr-Leu and [D] is Tyr”, the step yield is reported as 45.3%.
